Assay results: the supplement of paper PMC10849652
This is one part of the list.

By UniProt entry, the sequences of proteins in these tests, tags left out. Where a name states a change or a piece, a line headed by the entry shows the natural chain unless it says otherwise.
UniProt P56181: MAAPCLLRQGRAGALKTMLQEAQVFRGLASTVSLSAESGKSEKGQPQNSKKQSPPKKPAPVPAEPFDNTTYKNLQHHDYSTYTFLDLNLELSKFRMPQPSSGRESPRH
UniProt Q13564: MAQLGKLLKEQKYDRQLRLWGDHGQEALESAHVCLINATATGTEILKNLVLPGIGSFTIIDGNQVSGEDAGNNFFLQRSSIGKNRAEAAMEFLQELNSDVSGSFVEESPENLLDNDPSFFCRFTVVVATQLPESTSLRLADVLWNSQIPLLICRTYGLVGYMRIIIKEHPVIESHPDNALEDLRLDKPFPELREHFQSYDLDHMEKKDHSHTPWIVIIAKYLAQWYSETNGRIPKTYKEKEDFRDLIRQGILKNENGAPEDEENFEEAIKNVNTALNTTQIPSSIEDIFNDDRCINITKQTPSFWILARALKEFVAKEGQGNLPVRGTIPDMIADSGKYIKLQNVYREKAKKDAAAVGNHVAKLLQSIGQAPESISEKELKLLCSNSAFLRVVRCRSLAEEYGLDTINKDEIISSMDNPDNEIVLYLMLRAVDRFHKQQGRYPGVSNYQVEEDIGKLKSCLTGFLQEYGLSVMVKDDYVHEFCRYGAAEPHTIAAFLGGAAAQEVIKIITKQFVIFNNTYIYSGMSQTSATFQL
UniProt O75306, whole entry, looked up: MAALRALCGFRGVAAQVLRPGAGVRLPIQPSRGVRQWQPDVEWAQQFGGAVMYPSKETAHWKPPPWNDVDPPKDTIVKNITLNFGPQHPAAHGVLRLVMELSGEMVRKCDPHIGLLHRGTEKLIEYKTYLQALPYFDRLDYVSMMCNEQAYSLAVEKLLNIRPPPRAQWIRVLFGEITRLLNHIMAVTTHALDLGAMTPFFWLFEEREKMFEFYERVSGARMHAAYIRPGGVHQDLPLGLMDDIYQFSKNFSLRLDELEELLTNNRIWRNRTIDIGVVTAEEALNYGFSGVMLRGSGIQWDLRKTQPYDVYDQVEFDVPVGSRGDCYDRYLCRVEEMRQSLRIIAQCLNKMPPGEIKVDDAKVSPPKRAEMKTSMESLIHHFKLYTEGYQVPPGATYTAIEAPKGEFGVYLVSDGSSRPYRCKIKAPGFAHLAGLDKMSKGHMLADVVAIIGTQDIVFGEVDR
UniProt P62166, whole entry, looked up: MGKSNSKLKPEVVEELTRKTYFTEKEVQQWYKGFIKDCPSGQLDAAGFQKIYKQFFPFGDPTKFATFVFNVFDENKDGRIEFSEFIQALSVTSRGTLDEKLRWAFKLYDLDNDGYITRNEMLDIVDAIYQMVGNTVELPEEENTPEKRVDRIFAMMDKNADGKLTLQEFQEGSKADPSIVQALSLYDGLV
UniProt Q8N183: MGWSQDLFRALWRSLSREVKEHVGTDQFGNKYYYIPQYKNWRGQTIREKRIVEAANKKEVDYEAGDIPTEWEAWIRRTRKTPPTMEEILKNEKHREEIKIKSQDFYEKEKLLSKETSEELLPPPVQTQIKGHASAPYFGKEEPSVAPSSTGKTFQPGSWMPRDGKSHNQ
UniProt Q8NHV4, whole entry, looked up: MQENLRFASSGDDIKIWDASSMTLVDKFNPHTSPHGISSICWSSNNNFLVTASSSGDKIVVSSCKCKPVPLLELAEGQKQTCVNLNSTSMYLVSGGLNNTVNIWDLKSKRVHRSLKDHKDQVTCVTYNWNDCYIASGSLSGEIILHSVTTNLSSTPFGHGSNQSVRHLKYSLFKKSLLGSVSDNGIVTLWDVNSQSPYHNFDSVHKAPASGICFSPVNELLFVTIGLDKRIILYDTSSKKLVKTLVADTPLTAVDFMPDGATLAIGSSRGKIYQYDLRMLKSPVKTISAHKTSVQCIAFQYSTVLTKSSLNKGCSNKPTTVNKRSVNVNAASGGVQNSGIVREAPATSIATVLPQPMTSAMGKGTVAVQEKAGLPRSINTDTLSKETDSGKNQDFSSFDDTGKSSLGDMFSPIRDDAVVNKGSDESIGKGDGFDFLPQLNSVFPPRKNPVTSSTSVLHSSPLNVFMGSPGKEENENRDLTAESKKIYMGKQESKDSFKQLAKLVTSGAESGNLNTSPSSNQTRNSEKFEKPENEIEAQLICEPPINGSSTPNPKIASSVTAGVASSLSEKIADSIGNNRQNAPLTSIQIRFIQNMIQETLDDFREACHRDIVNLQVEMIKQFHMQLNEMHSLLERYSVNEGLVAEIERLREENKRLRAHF
UniProt P17568, whole entry, looked up: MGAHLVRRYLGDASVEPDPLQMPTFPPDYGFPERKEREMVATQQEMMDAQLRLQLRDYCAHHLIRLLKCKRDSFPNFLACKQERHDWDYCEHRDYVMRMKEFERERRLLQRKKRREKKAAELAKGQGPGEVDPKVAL
UniProt Q15021, whole entry, looked up: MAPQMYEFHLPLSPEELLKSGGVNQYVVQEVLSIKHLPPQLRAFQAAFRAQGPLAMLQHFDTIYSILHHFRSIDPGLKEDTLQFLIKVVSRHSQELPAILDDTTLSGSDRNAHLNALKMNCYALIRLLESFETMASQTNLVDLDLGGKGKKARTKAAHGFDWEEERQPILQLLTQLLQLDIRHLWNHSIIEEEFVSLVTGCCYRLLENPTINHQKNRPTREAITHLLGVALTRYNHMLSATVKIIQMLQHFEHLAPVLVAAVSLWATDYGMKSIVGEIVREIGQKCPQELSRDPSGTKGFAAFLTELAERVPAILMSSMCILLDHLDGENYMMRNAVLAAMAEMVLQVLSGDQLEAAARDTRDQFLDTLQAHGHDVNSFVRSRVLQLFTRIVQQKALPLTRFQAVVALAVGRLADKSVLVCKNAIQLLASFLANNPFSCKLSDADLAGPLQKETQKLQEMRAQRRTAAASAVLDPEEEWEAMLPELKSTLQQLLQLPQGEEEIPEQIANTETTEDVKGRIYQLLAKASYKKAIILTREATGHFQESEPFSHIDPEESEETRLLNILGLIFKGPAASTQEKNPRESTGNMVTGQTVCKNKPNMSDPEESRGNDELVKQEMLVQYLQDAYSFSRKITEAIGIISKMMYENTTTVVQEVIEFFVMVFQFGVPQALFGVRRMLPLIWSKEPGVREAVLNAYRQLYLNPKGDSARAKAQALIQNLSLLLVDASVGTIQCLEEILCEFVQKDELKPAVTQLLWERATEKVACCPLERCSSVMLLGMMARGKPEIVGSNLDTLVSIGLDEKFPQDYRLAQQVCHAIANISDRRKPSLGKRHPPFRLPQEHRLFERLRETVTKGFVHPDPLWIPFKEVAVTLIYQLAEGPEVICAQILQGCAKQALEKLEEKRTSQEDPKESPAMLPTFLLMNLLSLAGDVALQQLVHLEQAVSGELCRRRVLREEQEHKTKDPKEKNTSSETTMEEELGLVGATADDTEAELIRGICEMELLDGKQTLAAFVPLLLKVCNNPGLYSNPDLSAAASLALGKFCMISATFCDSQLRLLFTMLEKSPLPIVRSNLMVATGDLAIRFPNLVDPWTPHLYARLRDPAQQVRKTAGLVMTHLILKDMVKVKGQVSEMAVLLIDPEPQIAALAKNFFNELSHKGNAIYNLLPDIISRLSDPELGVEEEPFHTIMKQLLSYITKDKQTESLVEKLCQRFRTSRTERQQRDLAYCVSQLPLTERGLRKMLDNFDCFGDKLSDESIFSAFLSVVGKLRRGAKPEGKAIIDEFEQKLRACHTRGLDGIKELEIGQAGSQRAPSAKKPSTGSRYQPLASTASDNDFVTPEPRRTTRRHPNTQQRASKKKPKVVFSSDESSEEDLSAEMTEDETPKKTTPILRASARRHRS
UniProt Q6IA69: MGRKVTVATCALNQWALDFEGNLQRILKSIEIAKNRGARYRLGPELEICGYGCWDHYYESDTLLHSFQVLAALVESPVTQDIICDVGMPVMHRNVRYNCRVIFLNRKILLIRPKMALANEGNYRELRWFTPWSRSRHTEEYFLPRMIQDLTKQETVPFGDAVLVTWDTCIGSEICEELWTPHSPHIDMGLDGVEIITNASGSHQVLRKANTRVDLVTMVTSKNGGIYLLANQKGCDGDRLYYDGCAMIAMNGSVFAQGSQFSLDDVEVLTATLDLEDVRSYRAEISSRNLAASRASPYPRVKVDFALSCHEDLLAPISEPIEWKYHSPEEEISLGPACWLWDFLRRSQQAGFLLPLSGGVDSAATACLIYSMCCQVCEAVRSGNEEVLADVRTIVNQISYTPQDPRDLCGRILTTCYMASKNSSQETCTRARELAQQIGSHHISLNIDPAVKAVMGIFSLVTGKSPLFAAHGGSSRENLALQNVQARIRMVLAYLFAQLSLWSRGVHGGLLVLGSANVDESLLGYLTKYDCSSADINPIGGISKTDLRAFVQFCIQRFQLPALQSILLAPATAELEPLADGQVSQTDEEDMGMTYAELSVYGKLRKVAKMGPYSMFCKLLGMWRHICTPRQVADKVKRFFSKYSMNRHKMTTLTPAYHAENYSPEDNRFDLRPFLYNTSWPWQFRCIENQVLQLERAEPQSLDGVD
UniProt O43639, whole entry, looked up: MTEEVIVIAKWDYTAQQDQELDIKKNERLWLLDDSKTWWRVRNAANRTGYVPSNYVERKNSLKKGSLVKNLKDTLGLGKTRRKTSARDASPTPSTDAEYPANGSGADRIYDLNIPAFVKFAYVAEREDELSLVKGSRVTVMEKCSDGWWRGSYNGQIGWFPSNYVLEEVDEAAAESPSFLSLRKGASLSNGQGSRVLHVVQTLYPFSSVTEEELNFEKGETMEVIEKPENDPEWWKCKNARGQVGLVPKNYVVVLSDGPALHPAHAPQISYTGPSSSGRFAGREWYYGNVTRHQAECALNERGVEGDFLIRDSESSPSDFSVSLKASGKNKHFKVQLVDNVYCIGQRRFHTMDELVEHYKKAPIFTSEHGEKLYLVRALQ
UniProt P56556, whole entry, looked up: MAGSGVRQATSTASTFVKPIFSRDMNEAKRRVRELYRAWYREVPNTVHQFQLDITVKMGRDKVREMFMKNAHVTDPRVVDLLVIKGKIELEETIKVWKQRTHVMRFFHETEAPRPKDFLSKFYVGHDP
UniProt Q86XI2: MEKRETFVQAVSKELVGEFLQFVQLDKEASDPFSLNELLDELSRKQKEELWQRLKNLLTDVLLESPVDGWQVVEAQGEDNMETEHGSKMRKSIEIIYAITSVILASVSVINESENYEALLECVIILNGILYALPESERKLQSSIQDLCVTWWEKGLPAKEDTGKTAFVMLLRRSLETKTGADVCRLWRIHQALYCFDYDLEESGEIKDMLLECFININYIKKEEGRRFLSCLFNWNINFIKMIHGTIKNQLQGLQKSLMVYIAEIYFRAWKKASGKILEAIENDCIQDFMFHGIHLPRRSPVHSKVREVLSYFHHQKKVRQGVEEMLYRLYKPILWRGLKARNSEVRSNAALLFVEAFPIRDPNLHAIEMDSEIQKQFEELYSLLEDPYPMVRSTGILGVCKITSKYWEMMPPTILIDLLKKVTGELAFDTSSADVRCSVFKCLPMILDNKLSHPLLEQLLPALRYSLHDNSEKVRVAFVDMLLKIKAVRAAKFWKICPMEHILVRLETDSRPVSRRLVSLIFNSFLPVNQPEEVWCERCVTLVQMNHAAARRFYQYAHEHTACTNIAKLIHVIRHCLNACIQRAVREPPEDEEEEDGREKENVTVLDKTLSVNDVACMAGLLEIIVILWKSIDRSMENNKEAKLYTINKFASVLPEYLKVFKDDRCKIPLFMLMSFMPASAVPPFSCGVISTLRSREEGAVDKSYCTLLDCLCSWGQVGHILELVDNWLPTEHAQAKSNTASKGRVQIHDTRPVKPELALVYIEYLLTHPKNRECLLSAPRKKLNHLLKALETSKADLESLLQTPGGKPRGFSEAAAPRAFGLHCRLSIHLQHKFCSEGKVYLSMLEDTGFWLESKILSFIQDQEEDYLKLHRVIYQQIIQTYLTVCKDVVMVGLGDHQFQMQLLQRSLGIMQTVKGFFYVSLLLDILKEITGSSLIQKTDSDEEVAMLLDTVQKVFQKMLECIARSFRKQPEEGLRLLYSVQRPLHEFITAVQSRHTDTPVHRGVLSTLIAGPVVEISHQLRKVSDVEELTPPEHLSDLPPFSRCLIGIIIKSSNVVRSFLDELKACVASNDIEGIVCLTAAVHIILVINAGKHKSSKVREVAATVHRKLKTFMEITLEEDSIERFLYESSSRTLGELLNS
UniProt Q9HCD5: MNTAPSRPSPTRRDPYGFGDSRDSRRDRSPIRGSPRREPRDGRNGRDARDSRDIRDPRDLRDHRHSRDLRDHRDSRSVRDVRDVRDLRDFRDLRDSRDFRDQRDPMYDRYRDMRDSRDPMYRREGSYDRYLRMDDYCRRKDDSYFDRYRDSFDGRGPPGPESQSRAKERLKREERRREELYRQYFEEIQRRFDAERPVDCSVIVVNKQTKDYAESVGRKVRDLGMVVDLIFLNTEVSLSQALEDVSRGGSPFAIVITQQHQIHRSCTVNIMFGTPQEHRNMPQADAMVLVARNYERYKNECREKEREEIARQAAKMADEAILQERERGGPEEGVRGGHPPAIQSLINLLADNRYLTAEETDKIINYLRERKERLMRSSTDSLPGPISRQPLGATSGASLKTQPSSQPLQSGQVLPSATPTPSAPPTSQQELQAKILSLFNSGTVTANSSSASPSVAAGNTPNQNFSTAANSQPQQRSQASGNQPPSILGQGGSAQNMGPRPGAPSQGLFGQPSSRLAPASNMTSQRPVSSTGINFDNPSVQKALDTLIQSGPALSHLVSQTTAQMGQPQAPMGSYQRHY

Key:
Experiment in all cases: log2 fold change, soluble protein after heating vs DMSO (PISA); higher = thermal stabilisation; K562 cells, 10 uM, 30 min; active = over 0.2 and 3.5 SD of the protein, either way, in both replicates (recomputed)
[1] = compound: CC1=C(C=C(C=C1)NC(=O)C2=CC(=CC=C2)C(C)(C)C#N)NC3=CC4=C(C=C3)N=CN(C4=O)C
Summary of the method: (§1)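 K562 cells at 2×10^6 cells/mL were exposed to 10 μM compound for 30 min, then aliquots were heated for 3 min across 48°C-58°C, pooled, and extracted in PBS containing 0.5% NP-40 at 4°C. The supernatant after 21,000xg for 90 min was taken as soluble protein and measured by TMTpro 16plex LC-MS/MS with channel sums equalised. Thermal stability is reported relative to control samples, with values from duplicates. Fold changes are given on a log2 scale.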

[2] = compound: CC1=C(C=C(C=C1)NC(=O)C2=CC(=CC=C2)N(C)C)NC(=O)C3=CC=C(C=C3)O
Summary of the method: as §1

[3] = compound: CC1=CC=C(C=C1)SC2=C3C=C(SC3=CN=C2)C(=O)N
Summary of the method: as §1

[4] = compound: CC1=NC(=CC=C1)C2=C(N=C(N2)C(C)(C)C)C3=CC4=NC=CN=C4C=C3
Summary of the method: as §1

Nexturastat A = compound: CCCCN(Cc1ccc(C(=O)NO)cc1)C(=O)Nc1ccccc1 [Nexturastat A]
Summary of the method: as §1

vemurafenib = compound: CCCS(=O)(=O)Nc1ccc(F)c(C(=O)c2c[nH]c3ncc(-c4ccc(Cl)cc4)cc23)c1F [vemurafenib]
Summary of the method: as §1

[5] = compound: CCCS(=O)(=O)Nc1ccc(F)c(C(=O)c2c[nH]c3ncc(Cl)cc23)c1F
Summary of the method: as §1

[6] = compound: CCCc1cc(C)[nH]c(=O)c1CNC(=O)c1cc(-c2ccnc(N3CCN(C)CC3)c2)cc2c1cnn2C(C)C
Summary of the method: as §1

givinostat = compound: CCN(CC)Cc1ccc2cc(COC(=O)Nc3ccc(C(=O)NO)cc3)ccc2c1 [givinostat]
Summary of the method: as §1

barasertib = compound: CCN(CCCOc1ccc2c(Nc3cc(CC(=O)Nc4cccc(F)c4)[nH]n3)ncnc2c1)CCOP(=O)(O)O [barasertib]
Summary of the method: as §1

Target	log2 fold change [1]	log2 fold change [2]	log2 fold change [3]	log2 fold change [4]	log2 fold change (Nexturastat A)	log2 fold change (vemurafenib)	log2 fold change [5]	log2 fold change [6]	log2 fold change (givinostat)	log2 fold change (barasertib)
NDUFV3 isoform 2 (UniProt P56181)	inactive: -0.054	inactive: 0.012	inactive: -0.037	inactive: -0.06	inactive: -0.024	inactive: -0.039	inactive: -0.051	inactive: -0.014	inactive: -0.025	inactive: -0.048
NDUFV3 (UniProt P56181)	inactive: 0.039	inactive: -0.004	inactive: -0.045	inactive: 0.043	inactive: 0.012	inactive: 0.044	inactive: -0.072	inactive: 0.037	inactive: 0.001	inactive: -0.049
NAE1 (UniProt Q13564)	inactive: -0.019	inactive: -0.043	inactive: 0.008	inactive: -0.061	inactive: 0.025	inactive: 0.03	inactive: 0.063	inactive: -0.033	inactive: 0.003	inactive: 0.047
NDUFS2 (UniProt O75306)	inactive: 0.055	inactive: -0.007	inactive: 0.018	inactive: 0.025	inactive: -0.116	inactive: 0.05	inactive: 0.052	inactive: -0.048	inactive: -0.017	inactive: -0.004
NCS1 (UniProt P62166)	inactive: 0.037	inactive: 0.072	inactive: 0.077	inactive: 0.03	inactive: -0.038	inactive: 0.041	inactive: 0.038	inactive: 0.001	inactive: -0.05	inactive: -0.021
MZT2A (UniProt Q6P582)	inactive: -0.073	inactive: -0.012	inactive: 0.021	inactive: 0.001	inactive: 0.094	inactive: 0.156	inactive: -0.03	inactive: -0.045	inactive: -0.013	inactive: -0.038
NDUFAF2 (UniProt Q8N183)	inactive: -0.031	inactive: 0.006	inactive: 0.039	inactive: 0.051	inactive: -0.086	inactive: -0.009	inactive: 0.027	inactive: -0.043	inactive: 0.033	inactive: -0.012
NDUFAF5 (UniProt Q5TEU4)	inactive: -0.046	inactive: 0.054	inactive: -0.038	inactive: 0.047	inactive: -0.139	inactive: 0.026	inactive: -0.046	inactive: 0.005	inactive: -0.032	inactive: -0.163
NDE1 isoform 1 (UniProt Q9NXR1)	inactive: -0.026	inactive: 0.036	inactive: -0.004	inactive: -0.029	inactive: -0.016	inactive: -0.021	inactive: -0.02	inactive: -0.011	inactive: -0.038	inactive: 0.008
NCBP2 (UniProt P52298)	inactive: 0.002	inactive: -0.02	inactive: -0.012	inactive: -0.006	inactive: -0.005	inactive: 0.028	inactive: 0.009	inactive: -0.031	inactive: 0.022	inactive: 0.022
NEDD1 isoform 3 (UniProt Q8NHV4)	inactive: 0.013	inactive: -0.051	inactive: -0.074	inactive: -0.045	inactive: 0.025	inactive: -0.022	inactive: -0.09	inactive: -0.003	inactive: 0	inactive: 0.024
NAMPT (UniProt P43490)	inactive: -0.028	inactive: -0.002	inactive: 0.011	inactive: 0.01	inactive: -0.048	inactive: -0.005	inactive: -0.012	inactive: -0.036	inactive: 0.015	inactive: -0.011
NDUFB7 (UniProt P17568)	inactive: 0.037	inactive: -0.006	inactive: 0.063	inactive: 0.027	inactive: 0.023	inactive: 0.018	inactive: -0.014	inactive: -0.124	active: -0.367	inactive: -0.012
NA isoform 3 (UniProt Q4G0T1)	inactive: -0.007	inactive: 0.035	inactive: 0.008	inactive: -0.057		inactive: 0.005	inactive: -0.077	inactive: -0.012	inactive: -0.009	inactive: 0.179
NDFIP2 (UniProt Q9NV92)	inactive: -0.704	inactive: 0.147	inactive: -0.057				inactive: -0.094	inactive: 0.076	inactive: 0.028	
NCAPD2 (UniProt Q15021)	inactive: 0.057	inactive: -0.032	inactive: 0.012	inactive: -0.013	inactive: 0.058	inactive: 0.119	inactive: 0.041	inactive: 0.101	inactive: 0.077	inactive: 0.03

Target	log2 fold change [1]	log2 fold change [2]	log2 fold change [3]	log2 fold change [4]	log2 fold change (Nexturastat A)	log2 fold change (vemurafenib)	log2 fold change [5]	log2 fold change [6]	log2 fold change (givinostat)	log2 fold change (barasertib)
NACA4P (UniProt Q9BZK3)	inactive: 0.029	inactive: 0		inactive: 0.091	inactive: 0.011	inactive: 0.047		inactive: 0.059	inactive: 0.241	inactive: 0.032
NDST2 (UniProt P52849)	inactive: -0.125	inactive: 0.03		inactive: -0.031	inactive: -0.019	inactive: -0.009		inactive: 0.026	inactive: 0.133	inactive: 0.199
NDUFA7 (UniProt O95182)	inactive: -0.013	inactive: 0	inactive: -0.007	inactive: -0.021	inactive: -0.035	inactive: -0.045	inactive: 0.019	inactive: -0.079	inactive: -0.024	inactive: -0.011
NADSYN1 (UniProt Q6IA69)	inactive: -0.05	inactive: -0.026	inactive: -0.028	inactive: -0.008	inactive: -0.064	inactive: -0.026	inactive: 0.037	inactive: -0.032	inactive: -0.044	inactive: -0.044
NCK2 (UniProt O43639)	inactive: 0.021	inactive: -0.064	inactive: -0.114	inactive: 0.071	inactive: -0.055	inactive: 0.066	inactive: -0.312			inactive: 0.053
NCAPG (UniProt Q9BPX3)	inactive: 0.086	inactive: -0.074	inactive: 0.027	inactive: 0.038	inactive: 0.011	inactive: 0.056	inactive: 0.091	inactive: 0.064	inactive: 0.081	inactive: 0.064
NAAA (UniProt Q02083)	inactive: 0.201	inactive: 0.042	inactive: -0.198	inactive: 0.252			inactive: 0.03	inactive: -0.042	inactive: -0.002	
NCOR2 (UniProt C9J0Q5)	inactive: -0.051	inactive: 0.067	inactive: 0.005	inactive: -0.003	inactive: -0.052	inactive: -0.054	inactive: -0.017	inactive: -0.052	inactive: 0.001	inactive: -0.009
NDUFA6 (UniProt P56556)	inactive: 0.029	inactive: -0.082	inactive: 0.1	inactive: 0.125	inactive: -0.067	inactive: 0.04	inactive: 0.198	inactive: -0.064	inactive: 0.047	inactive: 0.035
NCAPG2 isoform 2 (UniProt Q86XI2)	inactive: 0.083	inactive: -0.009	inactive: -0.061	inactive: 0.029	inactive: 0.239	inactive: -0.037	inactive: 0.017	inactive: 0.025	inactive: 0.108	inactive: -0.007
NARS2 (UniProt Q96I59)	inactive: -0.016	inactive: 0.002	inactive: -0.011	inactive: 0.019	inactive: -0.071	inactive: -0.01	inactive: 0.038	inactive: -0.033	inactive: -0.076	inactive: 0.002
NDUFB11 isoform 2 (UniProt Q9NX14)	inactive: 0.011	inactive: -0.043	inactive: 0.008	inactive: 0.014	inactive: 0.019	inactive: 0.037	inactive: 0.019	inactive: 0.002	inactive: -0.05	inactive: 0.013
NCDN isoform 3 (UniProt Q9UBB6)	inactive: 0.009	inactive: 0.004	inactive: 0.031	inactive: 0.045	inactive: 0.046	inactive: 0.048	inactive: -0.093	inactive: -0.094	inactive: -0.037	inactive: 0.086
NCOA3 (UniProt Q9Y6Q9)	inactive: 0.078	inactive: -0.023	inactive: 0.055	inactive: 0.005	inactive: 0.097	inactive: 0.079	inactive: -0.05		inactive: 0.081	inactive: 0.078
NCOA5 (UniProt Q9HCD5)	inactive: 0.076	inactive: 0.134	inactive: 0.099	inactive: -0.315			inactive: -0.096		inactive: 0.08	

Shown bar-delimited: part of the list above
Target | log2 fold change [1] | log2 fold change [2] | log2 fold change [3] | log2 fold change [4] | log2 fold change (Nexturastat A) | log2 fold change (vemurafenib) | log2 fold change [5] | log2 fold change [6] | log2 fold change (givinostat) | log2 fold change (barasertib)
NDST2 (UniProt P52849) | inactive: -0.125 | inactive: 0.03 |  | inactive: -0.031 | inactive: -0.019 | inactive: -0.009 |  | inactive: 0.026 | inactive: 0.133 | inactive: 0.199
NARS2 (UniProt Q96I59) | inactive: -0.016 | inactive: 0.002 | inactive: -0.011 | inactive: 0.019 | inactive: -0.071 | inactive: -0.01 | inactive: 0.038 | inactive: -0.033 | inactive: -0.076 | inactive: 0.002
